The other results are listed elsewhere or left out.
Tests used:
Assay in all cases: glycan array binding signal (z-score within array); higher = stronger binding
Settings in all cases: glycan notation: IUPAC condensed, linker removed
[1] = molecular target: Gal(a1-3)[Gal(a1-4)]Gal(b1-4)GlcNAc
In short: (§1)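 The binding signal is a Z-score computed within each array and averaged over linkers. Arrays of the same protein sequence at different concentrations or buffers were also averaged together. Data originate from 3228 arrays in the Consortium for Functional Glycomics database, kept only where the protein sequence was available.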

[2] = molecular target: Gal(a1-4)Gal(b1-3)GlcNAc(b1-2)Man(a1-3)[Gal(a1-4)Gal(b1-3)GlcNAc(b1-2)Man(a1-6)]Man(b1-4)GlcNAc(b1-4)GlcNAc
In short: as §1

[3] = molecular target: Gal(a1-4)Gal(b1-4)Glc
In short: as §1

[4] = molecular target: Gal(a1-4)Gal(b1-4)GlcNAc
In short: as §1

[5] = molecular target: Gal(a1-4)Gal(b1-4)GlcNAc(b1-2)Man(a1-3)[Gal(a1-4)Gal(b1-4)GlcNAc(b1-2)Man(a1-6)]Man(b1-4)GlcNAc(b1-4)GlcNAc
In short: as §1

[6] = molecular target: Gal(a1-4)Gal(b1-4)GlcNAc(b1-3)Gal(b1-4)Glc
In short: as §1

[7] = molecular target: Gal(a1-4)GlcNAc
In short: as §1

[8] = molecular target: Gal(a1-6)Glc
In short: as §1

[9] = molecular target: Gal(b1-2)Gal
In short: as §1

[10] = molecular target: Gal(b1-3)Gal
In short: as §1

[11] = molecular target: Gal(b1-3)Gal(b1-4)GlcNAc
In short: as §1

[12] = molecular target: Gal(b1-3)GalNAc
In short: as §1

[13] = molecular target: Gal(b1-3)GalNAc(a1-3)[Fuc(a1-2)]Gal(b1-4)Glc
In short: as §1

[14] = molecular target: Gal(b1-3)GalNAc(a1-3)[Fuc(a1-2)]Gal(b1-4)GlcNAc
In short: as §1

[15] = molecular target: Gal(b1-3)GalNAc(b1-3)Gal
In short: as §1

[16] = molecular target: Gal(b1-3)GalNAc(b1-3)Gal(a1-4)Gal(b1-4)Glc
In short: as §1

[17] = molecular target: Gal(b1-3)GalNAc(b1-4)Gal(b1-4)Glc
In short: as §1

[18] = molecular target: Gal(b1-3)GalNAc(b1-4)[Neu5Ac(a2-3)]Gal(b1-4)Glc
In short: as §1

[19] = molecular target: Gal(b1-3)GlcNAc
In short: as §1

[20] = molecular target: Gal(b1-3)GlcNAc(a1-3)Gal(b1-4)GlcNAc
In short: as §1

[21] = molecular target: Gal(b1-3)GlcNAc(a1-6)Gal(b1-4)GlcNAc
In short: as §1

[22] = molecular target: Gal(b1-3)GlcNAc(b1-2)Man
In short: as §1

[23] = molecular target: Gal(b1-3)GlcNAc(b1-2)Man(a1-3)[Gal(b1-3)GlcNAc(b1-2)Man(a1-6)]Man(b1-4)GlcNAc(b1-4)GlcNAc
In short: as §1

[24] = molecular target: Gal(b1-3)GlcNAc(b1-2)Man(a1-3)[Gal(b1-3)GlcNAc(b1-2)Man(a1-6)]Man(b1-4)GlcNAc(b1-4)[Fuc(a1-6)]GlcNAc
In short: as §1

[25] = molecular target: Gal(b1-3)GlcNAc(b1-2)Man(a1-3)[GlcNAc(b1-4)][Gal(b1-3)GlcNAc(b1-2)Man(a1-6)]Man(b1-4)GlcNAc(b1-4)GlcNAc
In short: as §1

[26] = molecular target: Gal(b1-3)GlcNAc(b1-2)[Gal(b1-3)GlcNAc(b1-6)]Man(a1-6)[Gal(b1-3)GlcNAc(b1-2)Man(a1-3)]Man(b1-4)GlcNAc(b1-4)GlcNAc
In short: as §1

[27] = molecular target: Gal(b1-3)GlcNAc(b1-3)Gal(b1-3)GlcNAc
In short: as §1

[28] = molecular target: Gal(b1-3)GlcNAc(b1-3)Gal(b1-4)Glc
In short: as §1

[29] = molecular target: Gal(b1-3)GlcNAc(b1-3)Gal(b1-4)GlcNAc
In short: as §1

[30] = molecular target: Gal(b1-3)GlcNAc(b1-3)Gal(b1-4)GlcNAc(b1-2)Man(a1-3)[Gal(b1-3)GlcNAc(b1-3)Gal(b1-4)GlcNAc(b1-2)Man(a1-6)]Man(b1-4)GlcNAc(b1-4)GlcNAc
In short: as §1

[31] = molecular target: Gal(b1-3)GlcNAc(b1-3)Gal(b1-4)GlcNAc(b1-2)[Gal(b1-3)GlcNAc(b1-3)Gal(b1-4)GlcNAc(b1-6)]Man(a1-6)[Gal(b1-3)GlcNAc(b1-3)Gal(b1-4)GlcNAc(b1-2)Man(a1-3)]Man(b1-4)GlcNAc(b1-4)[Fuc(a1-6)]GlcNAc
In short: as §1

[32] = molecular target: Gal(b1-3)GlcNAc(b1-3)Gal(b1-4)GlcNAc(b1-3)Gal(b1-4)GlcNAc(b1-2)[Gal(b1-3)GlcNAc(b1-3)Gal(b1-4)GlcNAc(b1-3)Gal(b1-4)GlcNAc(b1-6)]Man(a1-6)[Gal(b1-3)GlcNAc(b1-3)Gal(b1-4)GlcNAc(b1-3)Gal(b1-4)GlcNAc(b1-2)Man(a1-3)]Man(b1-4)GlcNAc(b1-4)[Fuc(a1-6)]GlcNAc
In short: as §1

[33] = molecular target: Gal(b1-3)GlcNAc(b1-3)Gal(b1-4)GlcNAc(b1-6)[Gal(b1-3)GlcNAc(b1-3)]Gal(b1-4)Glc
In short: as §1

[34] = molecular target: Gal(b1-3)GlcNAc(b1-3)Gal(b1-4)[Fuc(a1-3)]GlcNAc
In short: as §1

[35] = molecular target: Gal(b1-3)GlcNAc(b1-3)Gal(b1-4)[Fuc(a1-3)]GlcNAc(b1-6)[Gal(b1-3)GlcNAc(b1-3)]Gal(b1-4)Glc
In short: as §1

[36] = molecular target: Gal(b1-3)GlcNAc(b1-3)GalNAc
In short: as §1

[37] = molecular target: Gal(b1-3)GlcNAc(b1-6)Gal(b1-4)GlcNAc
In short: as §1

[38] = molecular target: Gal(b1-3)GlcNAc(b1-6)GalNAc
In short: as §1

B1: Thrombomodulin Lectin (Mus musculus) (protein)
chain: LSALAKLQPTGSQCVEHECFALFQGPATFLDASQACQRLQGHLMTVRSSVAADVISLLLSQSSMDLGPWIGLQLPQGCDDPVHLGPLRGFQWVTGDNHTSYSRWARPNDQTAPLCGPLCVTVSTATEAAPGEPAWEEKPCETETQGFLCEFYFTASCRVDPIPVREDTKEEEGAGEPPVSPTPGSPTGPPSARPVLDEPRVPITQNPCPPLKECPPCAAPDLEGGPSVFIFPPKIKDVLMISLSPMVTCVVVDVSEDDPDVQISWFVNNVEVHTAQTQTHREDYNSTLRVVSALPIQHQDWMSGKAFACAVNNRALPSPIEKTISKPRGPVRAPQVYVLPPPAEEMTKKEFSLTCMITGFLPAEIAVDWTSNGRTEQNYKNTATVLDSDGSYFMYSKLRVQKSTWERGSLFACSVVHEGLHNHLTTKTISRSLGK
- glycan array binding signal (z-score) [1]: -0.316
- glycan array binding signal (z-score) [2]: 0.263
- glycan array binding signal (z-score) [3]: 0.161
- glycan array binding signal (z-score) [4]: 0.128
- glycan array binding signal (z-score) [5]: 0.913
- glycan array binding signal (z-score) [6]: 0.021
- glycan array binding signal (z-score) [7]: 0.928
- glycan array binding signal (z-score) [8]: -0.425
- glycan array binding signal (z-score) [9]: 0.104
- glycan array binding signal (z-score) [10]: 2.2
- glycan array binding signal (z-score) [11]: 0.215
- glycan array binding signal (z-score) [12]: -0.823
- glycan array binding signal (z-score) [13]: -1.3
- glycan array binding signal (z-score) [14]: 0.567
- glycan array binding signal (z-score) [15]: -0.295
- glycan array binding signal (z-score) [16]: 0.766
- glycan array binding signal (z-score) [17]: 0.526
- glycan array binding signal (z-score) [18]: 1.84
- glycan array binding signal (z-score) [19]: 0.176
- glycan array binding signal (z-score) [20]: -0.233
- glycan array binding signal (z-score) [21]: 0.476
- glycan array binding signal (z-score) [22]: -0.833
- glycan array binding signal (z-score) [23]: 0.924
- glycan array binding signal (z-score) [24]: 1.44
- glycan array binding signal (z-score) [25]: 0.031
- glycan array binding signal (z-score) [26]: -0.313
- glycan array binding signal (z-score) [27]: -0.119
- glycan array binding signal (z-score) [28]: -0.14
- glycan array binding signal (z-score) [29]: 1.05
- glycan array binding signal (z-score) [30]: -0.648
- glycan array binding signal (z-score) [31]: 1.65
- glycan array binding signal (z-score) [32]: -0.572
- glycan array binding signal (z-score) [33]: -0.163
- glycan array binding signal (z-score) [34]: 0.335
- glycan array binding signal (z-score) [35]: -0.562
- glycan array binding signal (z-score) [36]: -0.36
- glycan array binding signal (z-score) [37]: -0.581
- glycan array binding signal (z-score) [38]: -0.365
